Laboratory results from the supplement of paper PMC10849652.
The other results are listed elsewhere or left out.

Sequences of proteins named here, by UniProt entry; tags and fusion partners are left off. A change or cut given only in a name is not applied to a line headed by its entry.
UniProt Q7RTS9: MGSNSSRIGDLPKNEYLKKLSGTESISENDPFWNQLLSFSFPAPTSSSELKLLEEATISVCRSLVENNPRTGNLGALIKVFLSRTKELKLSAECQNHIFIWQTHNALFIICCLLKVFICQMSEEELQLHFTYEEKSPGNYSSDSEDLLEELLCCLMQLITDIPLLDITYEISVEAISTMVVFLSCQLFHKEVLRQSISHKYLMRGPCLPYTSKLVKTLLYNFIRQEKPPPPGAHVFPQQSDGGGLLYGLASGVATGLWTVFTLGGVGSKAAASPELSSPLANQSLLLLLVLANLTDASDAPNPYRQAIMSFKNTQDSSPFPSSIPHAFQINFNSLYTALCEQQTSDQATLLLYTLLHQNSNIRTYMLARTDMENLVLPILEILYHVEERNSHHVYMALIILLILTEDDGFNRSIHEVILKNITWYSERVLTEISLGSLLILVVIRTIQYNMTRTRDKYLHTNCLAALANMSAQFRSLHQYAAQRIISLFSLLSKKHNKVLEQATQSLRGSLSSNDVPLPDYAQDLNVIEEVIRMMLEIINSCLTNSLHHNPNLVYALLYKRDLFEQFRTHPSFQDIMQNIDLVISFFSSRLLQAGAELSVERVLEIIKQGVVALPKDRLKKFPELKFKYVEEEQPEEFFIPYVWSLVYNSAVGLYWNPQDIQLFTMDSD
UniProt Q6XUX3: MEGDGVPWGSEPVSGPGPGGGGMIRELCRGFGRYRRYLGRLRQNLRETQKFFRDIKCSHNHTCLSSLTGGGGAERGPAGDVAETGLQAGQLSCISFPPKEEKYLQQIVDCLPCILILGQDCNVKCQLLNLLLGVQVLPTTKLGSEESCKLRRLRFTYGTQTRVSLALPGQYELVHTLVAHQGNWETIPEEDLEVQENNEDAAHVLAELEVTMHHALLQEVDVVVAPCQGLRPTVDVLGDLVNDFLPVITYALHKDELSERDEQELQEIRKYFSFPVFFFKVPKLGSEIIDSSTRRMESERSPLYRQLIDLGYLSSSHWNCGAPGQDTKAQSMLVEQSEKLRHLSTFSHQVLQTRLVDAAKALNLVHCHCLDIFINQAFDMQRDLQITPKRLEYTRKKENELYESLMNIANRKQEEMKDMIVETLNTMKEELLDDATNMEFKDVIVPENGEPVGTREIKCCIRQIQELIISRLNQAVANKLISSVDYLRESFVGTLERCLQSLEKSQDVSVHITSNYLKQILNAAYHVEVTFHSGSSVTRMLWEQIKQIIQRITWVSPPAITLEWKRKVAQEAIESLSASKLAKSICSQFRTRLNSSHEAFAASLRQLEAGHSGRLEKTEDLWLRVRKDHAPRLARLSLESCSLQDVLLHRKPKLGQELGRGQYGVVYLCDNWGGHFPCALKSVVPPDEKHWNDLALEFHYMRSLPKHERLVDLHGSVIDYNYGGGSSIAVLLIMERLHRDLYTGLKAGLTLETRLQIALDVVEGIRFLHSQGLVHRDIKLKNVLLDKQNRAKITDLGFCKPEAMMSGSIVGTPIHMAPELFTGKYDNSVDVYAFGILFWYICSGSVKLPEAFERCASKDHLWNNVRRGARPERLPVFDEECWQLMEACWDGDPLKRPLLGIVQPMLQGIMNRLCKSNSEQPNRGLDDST
UniProt Q96DC8: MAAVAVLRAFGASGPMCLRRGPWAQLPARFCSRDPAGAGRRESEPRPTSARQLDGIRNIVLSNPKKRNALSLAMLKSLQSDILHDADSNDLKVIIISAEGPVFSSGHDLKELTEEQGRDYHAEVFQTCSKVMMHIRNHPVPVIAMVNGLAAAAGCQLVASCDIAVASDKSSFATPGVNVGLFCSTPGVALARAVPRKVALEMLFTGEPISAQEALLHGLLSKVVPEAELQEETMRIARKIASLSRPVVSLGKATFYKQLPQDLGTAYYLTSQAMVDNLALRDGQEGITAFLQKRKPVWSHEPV
UniProt Q6P3W2: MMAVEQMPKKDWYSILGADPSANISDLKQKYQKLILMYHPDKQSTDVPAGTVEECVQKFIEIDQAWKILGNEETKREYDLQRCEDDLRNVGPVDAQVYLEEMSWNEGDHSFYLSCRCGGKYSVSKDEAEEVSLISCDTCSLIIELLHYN
UniProt Q9H1X3: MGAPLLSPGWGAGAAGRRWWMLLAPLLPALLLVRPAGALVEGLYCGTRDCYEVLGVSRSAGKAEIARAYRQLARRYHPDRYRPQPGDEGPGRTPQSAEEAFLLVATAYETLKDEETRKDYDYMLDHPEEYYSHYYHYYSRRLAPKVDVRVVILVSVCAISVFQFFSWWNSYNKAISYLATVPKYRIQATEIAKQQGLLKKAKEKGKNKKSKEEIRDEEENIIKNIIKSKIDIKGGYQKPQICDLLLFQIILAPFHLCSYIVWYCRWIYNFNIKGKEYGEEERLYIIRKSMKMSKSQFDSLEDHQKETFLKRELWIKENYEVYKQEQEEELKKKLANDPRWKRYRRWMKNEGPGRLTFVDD
UniProt Q8TCX1: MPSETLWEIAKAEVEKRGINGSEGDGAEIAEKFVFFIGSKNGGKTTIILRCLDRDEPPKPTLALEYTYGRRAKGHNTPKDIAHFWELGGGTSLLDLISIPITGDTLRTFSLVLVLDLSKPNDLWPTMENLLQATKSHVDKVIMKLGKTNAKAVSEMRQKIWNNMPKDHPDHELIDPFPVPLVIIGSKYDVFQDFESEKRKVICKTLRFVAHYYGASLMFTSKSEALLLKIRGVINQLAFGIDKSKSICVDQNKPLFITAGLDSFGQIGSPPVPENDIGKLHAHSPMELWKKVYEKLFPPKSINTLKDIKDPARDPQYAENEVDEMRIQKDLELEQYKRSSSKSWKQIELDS
UniProt Q99956: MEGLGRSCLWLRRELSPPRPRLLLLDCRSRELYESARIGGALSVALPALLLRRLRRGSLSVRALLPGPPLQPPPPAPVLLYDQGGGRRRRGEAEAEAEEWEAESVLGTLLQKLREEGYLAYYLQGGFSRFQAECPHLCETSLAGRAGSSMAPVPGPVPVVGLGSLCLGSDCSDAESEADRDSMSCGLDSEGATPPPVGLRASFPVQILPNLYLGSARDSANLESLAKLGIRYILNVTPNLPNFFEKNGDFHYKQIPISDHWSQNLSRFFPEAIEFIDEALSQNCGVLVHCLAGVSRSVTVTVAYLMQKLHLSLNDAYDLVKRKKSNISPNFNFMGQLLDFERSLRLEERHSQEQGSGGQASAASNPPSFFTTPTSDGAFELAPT
UniProt Q9UBS3: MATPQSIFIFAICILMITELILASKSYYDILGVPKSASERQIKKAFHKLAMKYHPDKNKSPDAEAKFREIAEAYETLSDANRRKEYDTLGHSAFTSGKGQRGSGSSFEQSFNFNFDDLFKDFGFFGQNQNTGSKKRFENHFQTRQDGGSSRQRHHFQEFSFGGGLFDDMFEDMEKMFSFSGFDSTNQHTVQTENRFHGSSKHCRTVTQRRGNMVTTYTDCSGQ
UniProt O95905: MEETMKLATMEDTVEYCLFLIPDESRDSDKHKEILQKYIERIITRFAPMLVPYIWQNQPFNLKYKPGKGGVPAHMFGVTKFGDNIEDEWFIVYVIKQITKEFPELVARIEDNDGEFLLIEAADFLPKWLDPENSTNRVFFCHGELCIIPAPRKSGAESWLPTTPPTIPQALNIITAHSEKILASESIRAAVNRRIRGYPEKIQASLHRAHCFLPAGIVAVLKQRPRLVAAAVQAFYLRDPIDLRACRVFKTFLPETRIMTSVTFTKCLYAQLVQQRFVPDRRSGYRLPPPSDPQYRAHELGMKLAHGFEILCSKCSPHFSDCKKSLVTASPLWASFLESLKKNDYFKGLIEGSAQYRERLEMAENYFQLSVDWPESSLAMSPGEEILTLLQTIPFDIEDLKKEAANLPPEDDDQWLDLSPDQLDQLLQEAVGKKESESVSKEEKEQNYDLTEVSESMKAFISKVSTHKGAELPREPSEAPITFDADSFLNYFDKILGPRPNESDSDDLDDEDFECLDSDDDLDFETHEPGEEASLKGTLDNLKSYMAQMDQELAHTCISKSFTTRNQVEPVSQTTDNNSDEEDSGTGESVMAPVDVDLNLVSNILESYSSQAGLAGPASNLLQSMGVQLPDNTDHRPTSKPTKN
UniProt P51808: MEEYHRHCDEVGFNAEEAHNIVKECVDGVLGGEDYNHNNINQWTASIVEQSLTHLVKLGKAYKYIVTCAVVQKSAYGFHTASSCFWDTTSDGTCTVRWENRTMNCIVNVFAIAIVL
UniProt Q16610: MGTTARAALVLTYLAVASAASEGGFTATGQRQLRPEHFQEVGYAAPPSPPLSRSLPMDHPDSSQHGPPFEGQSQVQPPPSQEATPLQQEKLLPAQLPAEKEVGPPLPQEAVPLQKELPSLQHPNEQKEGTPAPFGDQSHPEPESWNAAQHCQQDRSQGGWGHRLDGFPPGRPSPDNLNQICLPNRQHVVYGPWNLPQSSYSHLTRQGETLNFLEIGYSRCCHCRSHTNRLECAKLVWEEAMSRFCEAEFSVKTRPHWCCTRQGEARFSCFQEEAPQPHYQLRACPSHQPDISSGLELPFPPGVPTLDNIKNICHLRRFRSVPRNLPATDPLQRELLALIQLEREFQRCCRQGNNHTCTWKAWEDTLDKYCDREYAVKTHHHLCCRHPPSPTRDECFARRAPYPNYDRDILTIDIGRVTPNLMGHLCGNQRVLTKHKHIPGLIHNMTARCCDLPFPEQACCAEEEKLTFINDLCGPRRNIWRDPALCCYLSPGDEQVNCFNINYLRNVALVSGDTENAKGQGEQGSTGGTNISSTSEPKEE
UniProt Q6UX65: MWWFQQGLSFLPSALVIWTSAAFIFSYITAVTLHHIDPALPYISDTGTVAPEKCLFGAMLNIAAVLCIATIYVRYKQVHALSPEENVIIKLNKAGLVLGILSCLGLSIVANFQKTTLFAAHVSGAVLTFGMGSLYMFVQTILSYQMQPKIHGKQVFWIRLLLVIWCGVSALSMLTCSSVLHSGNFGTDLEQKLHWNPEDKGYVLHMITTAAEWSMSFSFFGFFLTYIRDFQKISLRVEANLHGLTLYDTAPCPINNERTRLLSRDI
UniProt Q4LDG9: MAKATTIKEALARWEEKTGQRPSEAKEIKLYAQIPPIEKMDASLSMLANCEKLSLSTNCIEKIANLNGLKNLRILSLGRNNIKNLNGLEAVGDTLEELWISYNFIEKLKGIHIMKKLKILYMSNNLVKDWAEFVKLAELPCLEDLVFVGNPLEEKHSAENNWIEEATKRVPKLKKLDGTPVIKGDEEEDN
UniProt Q9NRR4: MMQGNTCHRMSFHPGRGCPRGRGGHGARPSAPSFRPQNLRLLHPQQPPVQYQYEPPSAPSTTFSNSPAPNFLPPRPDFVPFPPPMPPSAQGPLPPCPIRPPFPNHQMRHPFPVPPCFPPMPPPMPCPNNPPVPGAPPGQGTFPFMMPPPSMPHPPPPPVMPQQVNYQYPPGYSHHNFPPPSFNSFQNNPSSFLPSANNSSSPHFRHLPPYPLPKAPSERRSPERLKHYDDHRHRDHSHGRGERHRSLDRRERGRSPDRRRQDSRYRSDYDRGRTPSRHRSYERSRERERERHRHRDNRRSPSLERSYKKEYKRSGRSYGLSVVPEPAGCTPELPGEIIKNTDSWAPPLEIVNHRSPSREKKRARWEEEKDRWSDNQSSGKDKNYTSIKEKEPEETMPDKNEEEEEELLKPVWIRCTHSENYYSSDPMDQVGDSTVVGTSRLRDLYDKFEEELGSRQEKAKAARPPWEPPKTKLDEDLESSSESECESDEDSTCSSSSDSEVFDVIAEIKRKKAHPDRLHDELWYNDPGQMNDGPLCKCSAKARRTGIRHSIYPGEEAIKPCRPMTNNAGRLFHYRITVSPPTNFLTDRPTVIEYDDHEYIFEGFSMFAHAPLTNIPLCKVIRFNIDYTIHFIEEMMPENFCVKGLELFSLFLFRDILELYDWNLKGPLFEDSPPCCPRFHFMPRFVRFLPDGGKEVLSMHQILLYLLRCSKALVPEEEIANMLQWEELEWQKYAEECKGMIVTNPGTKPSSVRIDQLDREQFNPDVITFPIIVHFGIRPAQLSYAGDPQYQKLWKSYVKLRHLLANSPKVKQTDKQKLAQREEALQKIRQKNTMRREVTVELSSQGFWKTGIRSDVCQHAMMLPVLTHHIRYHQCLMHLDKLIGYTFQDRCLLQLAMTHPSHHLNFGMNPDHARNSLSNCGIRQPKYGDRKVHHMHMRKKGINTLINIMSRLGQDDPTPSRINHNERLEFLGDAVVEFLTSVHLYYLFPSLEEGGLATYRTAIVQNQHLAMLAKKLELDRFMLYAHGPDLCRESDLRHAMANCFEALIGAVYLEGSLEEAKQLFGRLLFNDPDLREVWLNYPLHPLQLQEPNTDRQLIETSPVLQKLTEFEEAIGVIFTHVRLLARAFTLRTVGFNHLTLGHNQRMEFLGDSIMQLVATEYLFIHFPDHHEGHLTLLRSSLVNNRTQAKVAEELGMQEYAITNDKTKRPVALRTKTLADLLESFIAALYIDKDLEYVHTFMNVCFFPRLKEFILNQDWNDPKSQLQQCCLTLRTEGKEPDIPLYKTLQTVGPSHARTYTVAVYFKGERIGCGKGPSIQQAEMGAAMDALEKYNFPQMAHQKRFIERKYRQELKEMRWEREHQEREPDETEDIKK

compound: C#Cc1cccc(Nc2ncnc3cc(OCCOC)c(OCCOC)cc23)c1 [erlotinib]; test: log2 fold change, soluble protein after heating vs DMSO (PISA); higher = thermal stabilisation; K562 cells, 10 uM, 30 min; active = over 0.2 and 3.5 SD of the protein, either way, in both replicates (recomputed)
How it was run: (§1)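 Aliquots of K562 cells (2×10^6 cells/mL) treated with 10 μM compound for 30 min were heated for 3 min over 48°C-58°C. After pooling and extraction in PBS with 0.5% NP-40 at 4°C, soluble protein from a 21,000xg, 90 min spin was quantified by TMTpro 16plex LC-MS/MS with channel sums equalised. Thermal stability is expressed against control samples, from duplicates, as a log2 fold change.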

How did the log2 fold change turn out when DNPEP (UniProt C9JBE1) was run?
The log2 fold change was inactive: -0.021.

For DYM (UniProt Q7RTS9), which log2 fold change is on record?
Its log2 fold change is inactive: -0.014.

For DPYSL3 isoform 2 (UniProt Q14195), which log2 fold change is on record?
Its log2 fold change is inactive: 0.02.

DUS1L (UniProt Q6P1R4) was tested. Which log2 fold change did it give?
Its log2 fold change is inactive: -0.223.

For DSTYK (UniProt Q6XUX3), which log2 fold change is on record?
The log2 fold change was inactive: 0.09.

ECHDC3 (UniProt Q96DC8) was tested. Which log2 fold change did it give?
Its log2 fold change is inactive: 0.035.

Which log2 fold change does the source give for DNAJC24 (UniProt Q6P3W2) here?
Its log2 fold change is inactive: -0.114.

With DNAJC25 (UniProt Q9H1X3) as the target, how does the log2 fold change read?
The log2 fold change was inactive: 0.071.

Which log2 fold change does the source give for DYNC2LI1 isoform 2 (UniProt Q8TCX1) here?
The log2 fold change was inactive: 0.219.

DUSP9 (UniProt Q99956) was tested. Which log2 fold change did it give?
The log2 fold change was inactive: 0.089.

DUSP19 (UniProt Q8WTR2) was tested. Which log2 fold change did it give?
Its log2 fold change is inactive: 0.068.

DNAJB9 (UniProt Q9UBS3) was tested. Which log2 fold change did it give?
Its log2 fold change is inactive: 0.243.

Which log2 fold change does the source give for ECD isoform 3 (UniProt O95905) here?
Its log2 fold change is inactive: 0.012.

compound: C/C(=N\NC(=O)C1=CC(=CC=C1)S(=O)(=O)N2CCOCC2)/C3=C(C=CC(=C3)Cl)O; test: as above
How it was run: as §1

With DPY19L2 (UniProt Q6NUT2) as the target, how does the log2 fold change read?
The log2 fold change was inactive: -0.032.

Which log2 fold change does the source give for DVL2 (UniProt O14641) here?
The log2 fold change was inactive: -0.062.

How did the log2 fold change turn out when DYNLT3 (UniProt P51808) was run?
The log2 fold change was inactive: -0.005.

With ECM1 isoform 2 (UniProt Q16610) as the target, how does the log2 fold change read?
The log2 fold change was inactive: 0.007.

Which log2 fold change does the source give for DRAM2 (UniProt Q6UX65) here?
Its log2 fold change is inactive: -0.012.

With DONSON (UniProt Q9NYP3) as the target, how does the log2 fold change read?
Its log2 fold change is inactive: -0.108.

E4F1 (UniProt Q66K89) was tested. Which log2 fold change did it give?
The log2 fold change was inactive: -0.168.

For DPCD (UniProt Q9BVM2), which log2 fold change is on record?
Its log2 fold change is inactive: 0.216.

How did the log2 fold change turn out when DNAL1 (UniProt Q4LDG9) was run?
The log2 fold change was inactive: -0.034.

How did the log2 fold change turn out when DROSHA (UniProt Q9NRR4) was run?
Its log2 fold change is inactive: -0.061.

compound: C1=CC(=C(C=C1Cl)C2=NC3=NC=CN=C3C(=N2)NC4=CC=NC=C4)F; test: as above
How it was run: as §1

How did the log2 fold change turn out when DOP1B (UniProt Q9Y3R5) was run?
The log2 fold change was inactive: 0.054.

Which log2 fold change does the source give for DVL2 (UniProt O14641) here?
The log2 fold change was inactive: -0.26.

How did the log2 fold change turn out when DNPEP (UniProt C9JBE1) was run?
Its log2 fold change is inactive: -0.052.

For DNAJB2 (UniProt P25686), which log2 fold change is on record?
The log2 fold change was inactive: -0.005.

For DYM (UniProt Q7RTS9), which log2 fold change is on record?
The log2 fold change was inactive: 0.03.

With DUSP12 (UniProt V9GYV5) as the target, how does the log2 fold change read?
Its log2 fold change is inactive: -0.034.

How did the log2 fold change turn out when DRAM2 (UniProt Q6UX65) was run?
Its log2 fold change is inactive: -0.105.

With DONSON (UniProt Q9NYP3) as the target, how does the log2 fold change read?
Its log2 fold change is inactive: -0.166.

For DYNC1I1 (UniProt O14576), which log2 fold change is on record?
Its log2 fold change is inactive: -0.112.

For E4F1 (UniProt Q66K89), which log2 fold change is on record?
The log2 fold change was inactive: -0.249.

Which log2 fold change does the source give for ECT2 isoform 3 (UniProt Q9H8V3) here?
Its log2 fold change is inactive: -0.12.

For DSTYK (UniProt Q6XUX3), which log2 fold change is on record?
The log2 fold change was inactive: -0.076.

How did the log2 fold change turn out when DNAL1 (UniProt Q4LDG9) was run?
The log2 fold change was inactive: 0.053.

Which log2 fold change does the source give for ECHDC3 (UniProt Q96DC8) here?
Its log2 fold change is inactive: -0.154.

How did the log2 fold change turn out when DNAJC24 (UniProt Q6P3W2) was run?
The log2 fold change was inactive: 0.123.

Which log2 fold change does the source give for DYNC2LI1 isoform 2 (UniProt Q8TCX1) here?
The log2 fold change was inactive: -0.107.

DUSP9 (UniProt Q99956) was tested. Which log2 fold change did it give?
The log2 fold change was inactive: 0.01.

Which log2 fold change does the source give for DROSHA (UniProt Q9NRR4) here?
The log2 fold change was inactive: 0.095.

How did the log2 fold change turn out when ECD isoform 3 (UniProt O95905) was run?
The log2 fold change was inactive: -0.059.

compound: C1=CC(=CC=C1C2=NC3=C(N2)C=C(C=C3)C(=O)N)OC4=CC=C(C=C4)Cl; test: as above
How it was run: as §1

Which log2 fold change does the source give for DNPEP (UniProt C9JBE1) here?
The log2 fold change was inactive: -0.019.

Which log2 fold change does the source give for DYM (UniProt Q7RTS9) here?
Its log2 fold change is inactive: 0.065.

For DPYSL3 isoform 2 (UniProt Q14195), which log2 fold change is on record?
The log2 fold change was inactive: -0.08.

Which log2 fold change does the source give for DUS1L (UniProt Q6P1R4) here?
Its log2 fold change is inactive: 0.068.

How did the log2 fold change turn out when DSTYK (UniProt Q6XUX3) was run?
Its log2 fold change is inactive: 0.

How did the log2 fold change turn out when ECHDC3 (UniProt Q96DC8) was run?
Its log2 fold change is inactive: -0.04.

With DNAJC24 (UniProt Q6P3W2) as the target, how does the log2 fold change read?
The log2 fold change was inactive: 0.062.

Which log2 fold change does the source give for DNAJC25 (UniProt Q9H1X3) here?
Its log2 fold change is inactive: -0.016.

For DYNC2LI1 isoform 2 (UniProt Q8TCX1), which log2 fold change is on record?
The log2 fold change was inactive: -0.284.

With DUSP9 (UniProt Q99956) as the target, how does the log2 fold change read?
Its log2 fold change is inactive: -0.218.

With DUSP19 (UniProt Q8WTR2) as the target, how does the log2 fold change read?
Its log2 fold change is inactive: 0.05.

With DNAJB9 (UniProt Q9UBS3) as the target, how does the log2 fold change read?
Its log2 fold change is inactive: 0.146.

With ECD isoform 3 (UniProt O95905) as the target, how does the log2 fold change read?
Its log2 fold change is inactive: 0.015.

compound: C1=CC2=C(C=CC(=C2)/C=C\3/C(=O)NC(=NCC4=CC=CS4)S3)N=C1; test: as above
How it was run: as §1

How did the log2 fold change turn out when DPY19L2 (UniProt Q6NUT2) was run?
The log2 fold change was inactive: -0.019.

Which log2 fold change does the source give for DVL2 (UniProt O14641) here?
The log2 fold change was inactive: 0.259.

DYNLT3 (UniProt P51808) was tested. Which log2 fold change did it give?
The log2 fold change was inactive: -0.15.

How did the log2 fold change turn out when ECM1 isoform 2 (UniProt Q16610) was run?
Its log2 fold change is inactive: 0.499.

With DRAM2 (UniProt Q6UX65) as the target, how does the log2 fold change read?
Its log2 fold change is inactive: 0.124.

With DONSON (UniProt Q9NYP3) as the target, how does the log2 fold change read?
Its log2 fold change is inactive: -0.047.

E4F1 (UniProt Q66K89) was tested. Which log2 fold change did it give?
Its log2 fold change is inactive: -0.088.

DPCD (UniProt Q9BVM2) was tested. Which log2 fold change did it give?
The log2 fold change was inactive: 0.082.

Which log2 fold change does the source give for DNAL1 (UniProt Q4LDG9) here?
The log2 fold change was inactive: -0.07.

Which log2 fold change does the source give for DROSHA (UniProt Q9NRR4) here?
Its log2 fold change is inactive: 0.062.

compound: C1=CC2=NC=CN=C2C=C1/C=C/3\C(=O)NC(=O)S3; test: as above
How it was run: as §1

Which log2 fold change does the source give for DOP1B (UniProt Q9Y3R5) here?
The log2 fold change was inactive: 0.079.

Which log2 fold change does the source give for DPY19L2 (UniProt Q6NUT2) here?
Its log2 fold change is inactive: 0.075.

DNPEP (UniProt C9JBE1) was tested. Which log2 fold change did it give?
The log2 fold change was inactive: -0.01.

With DYNLT3 (UniProt P51808) as the target, how does the log2 fold change read?
The log2 fold change was inactive: -0.029.

How did the log2 fold change turn out when DYM (UniProt Q7RTS9) was run?
Its log2 fold change is inactive: -0.05.

With ECM1 isoform 2 (UniProt Q16610) as the target, how does the log2 fold change read?
The log2 fold change was inactive: -0.285.

DNAJB1 (UniProt M0R128) was tested. Which log2 fold change did it give?
Its log2 fold change is inactive: -0.105.

Which log2 fold change does the source give for E4F1 (UniProt Q66K89) here?
Its log2 fold change is inactive: 0.137.

For DSTYK (UniProt Q6XUX3), which log2 fold change is on record?
Its log2 fold change is inactive: 0.106.

Which log2 fold change does the source give for DNAL1 (UniProt Q4LDG9) here?
The log2 fold change was active: -0.654.

Which log2 fold change does the source give for ECHDC3 (UniProt Q96DC8) here?
Its log2 fold change is inactive: 0.014.

Which log2 fold change does the source give for DNAJC24 (UniProt Q6P3W2) here?
Its log2 fold change is inactive: -0.053.

For DNAJC25 (UniProt Q9H1X3), which log2 fold change is on record?
Its log2 fold change is inactive: 0.081.

Which log2 fold change does the source give for ECD isoform 3 (UniProt O95905) here?
Its log2 fold change is inactive: 0.027.
